First the molecules themselves.
T1: Syngap1:1-744 (truncated at exon 13, TurboID-HA fusion) (mouse (endogenous in forebrain)) (UniProt F6SEU4)
T1 sequence: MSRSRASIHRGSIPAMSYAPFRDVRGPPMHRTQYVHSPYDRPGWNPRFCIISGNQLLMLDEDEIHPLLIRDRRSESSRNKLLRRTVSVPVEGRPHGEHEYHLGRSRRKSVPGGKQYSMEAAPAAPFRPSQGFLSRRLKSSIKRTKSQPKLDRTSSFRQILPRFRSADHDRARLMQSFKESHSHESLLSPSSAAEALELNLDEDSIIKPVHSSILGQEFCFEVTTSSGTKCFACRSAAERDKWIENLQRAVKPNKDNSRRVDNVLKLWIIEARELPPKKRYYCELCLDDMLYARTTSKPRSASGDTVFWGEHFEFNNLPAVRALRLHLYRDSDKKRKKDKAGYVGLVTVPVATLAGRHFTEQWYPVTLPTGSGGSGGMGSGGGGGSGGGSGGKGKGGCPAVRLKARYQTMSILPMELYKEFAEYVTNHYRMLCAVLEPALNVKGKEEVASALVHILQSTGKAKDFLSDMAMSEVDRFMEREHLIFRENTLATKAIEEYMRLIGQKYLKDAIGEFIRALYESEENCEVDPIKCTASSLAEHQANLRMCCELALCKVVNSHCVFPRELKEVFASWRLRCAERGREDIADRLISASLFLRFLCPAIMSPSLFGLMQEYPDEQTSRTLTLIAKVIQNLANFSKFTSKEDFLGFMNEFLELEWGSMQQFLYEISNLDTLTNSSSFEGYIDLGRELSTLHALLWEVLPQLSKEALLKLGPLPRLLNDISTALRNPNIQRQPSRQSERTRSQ

B1: Anks1b (mouse, endogenous, TurboID-HA knock-in) (protein, UniProt Q8BIZ1 1-1259)
chain: MGKDQELLEAARTGNVALVEKLLSGRKGGILGGGSGPLPLSNLLSIWRGPNVNCTDSSGYTALHHAALNGHKDIVLKLLQYEASTNVADNKGYFPIHLAAWKGDVEIVKILIHHGPSHSRVNEQNNENETALHCAAQYGHSEVVAVLLEELTDPTIRNSKLETPLDLAALYGRLRVVKMIISAHPNLMSCNTRKHTPLHLAARNGHKAVVQVLLEAGMDVSCQTEKGSALHEAALFGKVDVVRVLLETGIDANIKDSLGRTVLDILKEHPSQKSLQIATLLQDYLEGAGRSAAVLEEHAQEDTAQETHLSSPAESPQKTKSETVTGELSKLLDEIKLCQEKDYSFEDLCHTISDHYLDNLSKISEEELGKNGSQSVRTSSTINLSPGEVEDEEEDPNSCGPTGLWEALTPCNGCRNLGFPMLAQESYPKKRNFPMEMEPSASLDTFPSENENFLCELVDTAVTKKPCSLEIARAPSPRTDNASEVAITAPGTSHHRNSSTGPTPDCSPPSPDTALKNIVKVIRPQPKQRTSIVSSLDFQRMNHNQEYFEISTSTGCTSFTSSPAASPPTSSVETTEVKNEGAEHADDLSQQEDDEPPKEYDAGQFAGLLHGSSPACESPENPFHLYGKRNTCEDGPDEASLANSPLPFKQTPIENNPEPSVKKVKPKVVSRTIFHKRNHQLENHTIVGTRMSRSGSRNGDQWGVNPGGFVERACTLGRIRSLPKALIDMHLSKNVSKSDSDLIAYPSKDKARVNWSKSSTAERSSKDNSERTPSFTSEWEEIDKIMNSIDVGINSELEGMNGETTRPRCPVQTVGQWLESIGLPQYENHLMANGFDSVQFMGSNVMEDQDLLEIGILNSGHRQRILQAIQLLPKMRPIGHDGYHPTSVAEWLDSIELGDYTKAFLINGYTSMDLLKKIWELELINVLKISLIGHRKRILASLGDRLHDDPPQKPPRSITLREPSGNHTPPQLSPSLSQSTYTTGGSLDVPHIIMQGDARRRRNENYFDDIPRSKLERQMAQTGDWGEPSITLRPPNEATASTPVQYWQHHPEKLIFQSCDYKAFYLGSMLIKELRGTESTQDACAKMRANCRKSTEQMKKVPTIILSVSYKGVKFIDAANKNIIAEHEIRNISCAAQDPEDLSTFAYITKDLKSNHHYCHVFTAFDVNLAYEIILTLGQAFEVAYQLALQARKGGHSSTLPESFENKPSKPIPKPRVSIRKSVQIDPSEQKTLANLPWIVEPGQEAKRGINTKYETTIF
B2: Prickle1 (protein, UniProt Q3U5C7 1-832)
chain: MPLEMEPKMSKLVFGCQRSSTSDDDSGCALEEYAWVPPGLRPEQIQLYFACLPEEKVPYVNSPGEKHRIKQLLYQLPPHDNEVRYCQSLSEEEKKELQVFSAQRKKEALGRGTIKLLSRAVMHAVCEQCGLQMNGGEVAVFASRAGPGVCWHPSCFVCFTCNELLVDLIYFYQDGKIHCGRHHAELLKPRCSACDEIIFADECTEAEGRHWHMKHFCCLECETVLGGQRYIMKDGRPFCCGCFESLYAEYCETCGEHIGVDHAQMTYDGQHWHATEACFSCAQCKASLLGCPFLPKQGQIYCSKTCSLGEDIHASDSSDSAFQSARSRDSRRSVRMGRSSRSADQCRQSLLLSPALNYKFPGLSGNADDTLSRKLDDVSLASRQGAGFANEEFWKARVEQEASEDPEEWAEHEDYMTQLLLKFGDKNLFQQQSSEVDPRASEHWIPDNMVTNKPEVKPNHQGLASKKYQSDMYWAQSQDGLGDSAYGSHPGPASSRRLQELDLDHGAAGYTHDQSQWYEDSLECLSDLKPEQSIRDSMDSLALSNITGASVDGESKPRPSLYSLQNFEEIEAEDCEKMSNMGTLNSSMLHRSAESLQSLNSGLCPEKILPEEKPAHLPVLRRSKSQSRPQQVKFSDDVIDNGSYDIEIRQPPMSERTRRRAYHFEERGSRPHHHRHRRSRKSRSDNALNLVTERKYSAKDRLRLYTPDNYEKFIQNKSARELQAYMQNANLYSQYAHATSDYALQNPGMNRFLGLCGEDDDSWCSSSTSSSDSEEEGYFLGQPIPQPRPQRFTYYTDDLSSPASALPTPQFTQRTTKSKKKKGHKGKNCIIS
B3: Dlg3 (protein, UniProt P70175 1-849)
chain: MHKHQHCCKCPECYEVTRLAALRRLEPPGYGDWQVPDPYGPSGGNGASSGYGGYSSQTLPSQAGATPTPRTKAKLIPTGRDVGPVPPKPVPGKSTPKLNGSGPGWWPECTCTNRDWYEQASPAPLLVNPEALEPSLSVNGSDGMFKYEEIVLERGNSGLGFSIAGGIDNPHVPDDPGIFITKIIPGGAAAMDGRLGVNDCVLRVNEVDVSEVVHSRAVEALKEAGPVVRLVVRRRQPPPETIMEVNLLKGPKGLGFSIAGGIGNQHIPGDNSIYITKIIEGGAAQKDGRLQIGDRLLAVNNTNLQDVRHEEAVASLKNTSDMVYLKVAKPGSIHLNDMYAPPDYASTFTALADNHISHNSSLGYLGAVESKVTYPAPPQVPPTRYSPIPRHMLAEEDFTREPRKIILHKGSTGLGFNIVGGEDGEGIFVSFILAGGPADLSGELRRGDRILSVNGVNLRNATHEQAAAALKRAGQSVTIVAQYRPEEYSRFESKIHDLREQMMNSSMSSGSGSLRTSEKRSLYVRALFDYDRTRDSCLPSQGLSFSYGDILHVINASDDEWWQARLVTPHGESEQIGVIPSKKRVEKKERARLKTVKFHARTGMIESNRDFPGLSDDYYGAKNLKGVTSNTSDSESSSKGQEDAILSYEPVTRQEIHYARPVIILGPMKDRVNDDLISEFPHKFGSCVPHTTRPRRDNEVDGQDYHFVVSREQMEKDIQDNKFIEAGQFNDNLYGTSIQSVRAVAERGKHCILDVSGNAIKRLQQAQLYPIAIFIKPKSIEALMEMNRRQTYEQANKIFDKAMKLEQEFGEYFTAIVQGDSLEEIYNKIKQIIEDQSGHYIWVPSPEKL

These are yes or no findings as the source states them, for the method shown. In cells and extracts the contact can be indirect. Here binding means that the protein was enriched with, or labelled near, the bait; the list need not be complete. For part of these data: No binding means not detected with the bait. Tags and fused reporters may be left off the sequences shown.

One test concerns the target T1, Syngap1:1-744 (truncated at exon 13, TurboID-HA fusion) (mouse (endogenous in forebrain)). In words: proximity labelling.
B1: the binding entry is reported as “no binding”.
As to B2, the binding entry is “binds”.
Still for that read-out and setting: the entry for B3 is “binds”.

In a further test the target is Syngap1 (mouse, endogenous, TurboID-HA knock-in) (mouse (endogenous in forebrain)) (UniProt F6SEU4). In words: proximity labelling.
For B1, the binding result is “binds”.
The same measure, in the same setting: the entry for B2 is “binds”; for B3 it is “binds”.
